In this experiment the target is Vaccinia virus uracil DNA glycosylase (D4) (Vaccinia virus) (UniProt P04303). Kind of experiment: crystal structure; D4 co-crystallised with uracil; hanging drop, 277 K; reservoir 10% PEG 8000, 0.1 M Tris-HCl pH 8.0, 10% DMSO; 12 subunits in the asymmetric unit; 2.03 Å; both purified.

No constants are given. Whether binding was seen depends on the method and setting. Some binding calls cover weakened binding; strength is not graded here.

As for “Vaccinia virus uracil DNA glycosylase (D4) (from UniProt P04303) (enzyme)”, the binding result is reported as “binds”.

For the origin of these results see PMC3855713.
